PubChem BioAssay AID493246 – Drosophila RNAi Screening Center – 2011
In all, the deposit lists about 21,000 reagents; below is a random part of those that have a named target and a result. Of all reagents, 429 (2%) are marked active. 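Values are raw and not normalised between plates; calls rest on per-plate z-scores that were not deposited.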 A plus sign joins genes that one reagent is predicted to hit. Not stated in the record: the amount of reagent, the time to read-out.

Aim: 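Genes fly cells need to grow and stay alive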 (primary screen)
Cell system: Drosophila Kc and S2R+ cells
Knock-down reagent: long dsRNA against Drosophila genes
Measured: 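Cell number per well after knock-down, printed as raw plate values; calls were based on per-plate z-scores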
Scale: Kc cell number and S2R+ cell number: higher = more cells remaining
Active means: 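Counted as a hit if cell number falls by a z-score of at least 3 within its plate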

| gene | DRSC id | Kc cell number, rep 1 | Kc cell number, rep 2 | S2R+ cell number, rep 1 | S2R+ cell number, rep 2 | outcome |
| --- | --- | --- | --- | --- | --- | --- |
| CG3347 (GeneID 33538) | DRSC00597 | 1.74e6 | 1.75e6 | 1.10e6 | 1.29e6 | inactive |
| eRF3 (GeneID 34658) | DRSC03322 | 1.62e6 | 1.69e6 | 1.17e6 | 1.32e6 | inactive |
| EMRE (GeneID 37071) | DRSC06686 | 1.57e6 | 1.60e6 | 1.17e6 | 1.23e6 | inactive |
| Cyp9h1 (GeneID 36412) | DRSC07391 | 1.59e6 | 1.62e6 | 1.32e6 | 1.43e6 | inactive |
| MED21 (GeneID 3354977) | DRSC20932 | 1.66e6 | 1.62e6 | 1.16e6 | 1.29e6 | inactive |
| Trmt112 (GeneID 40343) | DRSC11685 | 1.95e6 | 1.72e6 | 1.48e6 | 1.61e6 | inactive |
| Polr3A (GeneID 32524) | DRSC19766 | 1.47e6 | 1.47e6 | 1.05e6 | 1.12e6 | inactive |
| CG14631 (GeneID 31049) | DRSC17792 | 1.46e6 | 1.49e6 | 1.04e6 | 1.16e6 | inactive |
| CG14631 (GeneID 31049) | DRSC17941 | 1.51e6 | 1.48e6 | 1.06e6 | 1.14e6 | inactive |
| Aatf (GeneID 33943) | DRSC02131 | 1.44e6 | 1.35e6 | 1.24e6 | 1.28e6 | inactive |
| CG8620 (GeneID 50310) | DRSC11020 | 1.59e6 | 1.45e6 | 1.13e6 | 1.20e6 | inactive |
| Ir51b (GeneID 246442) | DRSC05540 | 1.45e6 | 1.41e6 | 9.87e5 | 1.14e6 | inactive |
| pall (GeneID 39104) | DRSC10364 | 1.21e6 | 1.31e6 | 1.32e6 | 1.21e6 | inactive |
| yip7 (GeneID 38680) | DRSC11410 | 1.56e6 | 1.53e6 | 1.06e6 | 1.20e6 | inactive |
| to (GeneID 43036) | DRSC17086 | 1.84e6 | 1.70e6 | 1.12e6 | 1.23e6 | inactive |
| RpL34b (GeneID 41120) | DRSC16475 | 1.35e6 | 1.31e6 | 1.07e6 | 1.17e6 | inactive |
| Myb (GeneID 32543) | DRSC20260 | 5.55e5 | – | 9.29e5 | – | inactive |
| sws (GeneID 31716) | DRSC18843 | 1.48e6 | 1.55e6 | 1.08e6 | 1.20e6 | inactive |
| CG13443 (GeneID 37351) | DRSC06403 | 1.61e6 | 1.54e6 | 9.58e5 | 1.39e6 | inactive |
| ova (GeneID 34362) | DRSC02879 | 1.40e6 | 1.43e6 | 1.17e6 | 1.31e6 | inactive |
| Hgsnat (GeneID 31423) | DRSC18405 | 5.55e5 | – | 8.80e5 | – | inactive |
| Tsen34 + Trl | DRSC10014 | 1.37e6 | 1.36e6 | 1.19e6 | 1.29e6 | inactive |
| RfC4 (GeneID 38492) | DRSC08691 | 1.45e6 | 1.50e6 | 1.22e6 | 1.18e6 | inactive |
| CG18088 (GeneID 34219) | DRSC02654 | 1.49e6 | 1.54e6 | 1.18e6 | 1.36e6 | inactive |
| ball (GeneID 43228) | DRSC14145 | 1.38e6 | 1.39e6 | 8.17e5 | 9.38e5 | inactive |
| CG9270 (GeneID 35366) | DRSC03182 | 1.30e6 | 1.42e6 | 1.11e6 | 1.07e6 | inactive |
| CG11842 (GeneID 43431) | DRSC14400 | 5.51e5 | – | 8.28e5 | – | inactive |

8 neighbouring entries from above, quoted:
| gene | DRSC id | Kc cell number, rep 1 | Kc cell number, rep 2 | S2R+ cell number, rep 1 | S2R+ cell number, rep 2 | outcome |
| --- | --- | --- | --- | --- | --- | --- |
| EMRE (GeneID 37071) | DRSC06686 | 1.57e6 | 1.60e6 | 1.17e6 | 1.23e6 | inactive |
| Cyp9h1 (GeneID 36412) | DRSC07391 | 1.59e6 | 1.62e6 | 1.32e6 | 1.43e6 | inactive |
| MED21 (GeneID 3354977) | DRSC20932 | 1.66e6 | 1.62e6 | 1.16e6 | 1.29e6 | inactive |
| Trmt112 (GeneID 40343) | DRSC11685 | 1.95e6 | 1.72e6 | 1.48e6 | 1.61e6 | inactive |
| Polr3A (GeneID 32524) | DRSC19766 | 1.47e6 | 1.47e6 | 1.05e6 | 1.12e6 | inactive |
| CG14631 (GeneID 31049) | DRSC17792 | 1.46e6 | 1.49e6 | 1.04e6 | 1.16e6 | inactive |
| CG14631 (GeneID 31049) | DRSC17941 | 1.51e6 | 1.48e6 | 1.06e6 | 1.14e6 | inactive |
| Aatf (GeneID 33943) | DRSC02131 | 1.44e6 | 1.35e6 | 1.24e6 | 1.28e6 | inactive |

More entries follow:
| gene | DRSC id | Kc cell number, rep 1 | Kc cell number, rep 2 | S2R+ cell number, rep 1 | S2R+ cell number, rep 2 | outcome |
| --- | --- | --- | --- | --- | --- | --- |
| roh (GeneID 246602) | DRSC04003 | 1.26e6 | 1.33e6 | 7.84e5 | 9.03e5 | inactive |
| LManI (GeneID 34436) | DRSC02838 | 1.68e6 | 1.69e6 | 1.23e6 | 1.44e6 | inactive |
| wam (GeneID 42755) | DRSC15171 | 1.58e6 | 1.53e6 | 1.04e6 | 1.12e6 | inactive |
| teq (GeneID 39048) | DRSC10298 | 1.72e6 | 1.67e6 | 1.08e6 | 1.14e6 | inactive |
| teq (GeneID 39048) | DRSC11301 | 1.73e6 | 1.61e6 | 1.05e6 | 1.08e6 | inactive |
| teq (GeneID 39048) | DRSC11302 | 1.62e6 | 1.63e6 | 1.12e6 | 1.21e6 | inactive |
| CG7857 (GeneID 39671) | DRSC10925 | 1.48e6 | 1.48e6 | 1.35e6 | 1.38e6 | inactive |
| Mmp1 (GeneID 37949) | DRSC04493 | 1.74e6 | 1.79e6 | 1.27e6 | 1.42e6 | inactive |
| cmet (GeneID 53561) | DRSC03511 | 1.53e6 | 1.57e6 | 1.31e6 | 1.41e6 | inactive |
| CG11409 (GeneID 31078) | DRSC18579 | 5.59e5 | – | 8.07e5 | – | inactive |
| Cyp303a1 (GeneID 49165) | DRSC03300 | 1.63e6 | 1.70e6 | 1.40e6 | 1.58e6 | inactive |
| stg (GeneID 43466) | DRSC17071 | 4.01e5 | – | 4.25e5 | – | active |
| CG11417 (GeneID 31083) | DRSC18581 | 5.16e5 | – | 8.75e5 | – | inactive |
| CG33796 (GeneID 3771914) | DRSC09417 | 1.60e6 | 1.84e6 | 1.13e6 | 1.32e6 | inactive |
| Hers (GeneID 33000) | DRSC19429 | 1.48e6 | 1.56e6 | 1.04e6 | 1.21e6 | inactive |
| Hers (GeneID 33000) | DRSC19676 | 1.42e6 | 1.44e6 | 1.06e6 | 1.14e6 | inactive |
| TAF1B (GeneID 41242) | DRSC16001 | 1.73e6 | 1.83e6 | 1.26e6 | 1.35e6 | inactive |
| CG14135 (GeneID 39316) | DRSC10140 | 1.38e6 | 1.83e6 | 1.21e6 | 1.33e6 | inactive |
| Gr33a (GeneID 34641) | DRSC02589 | 1.53e6 | 1.63e6 | 1.22e6 | 1.32e6 | inactive |
| Sf3a1 (GeneID 42048) | DRSC15166 | 1.27e6 | 1.39e6 | 6.01e5 | 7.14e5 | active |
| Mf (GeneID 41824) | DRSC16120 | 1.27e6 | 1.41e6 | 1.08e6 | 1.21e6 | inactive |
| car (GeneID 32947) | DRSC20316 | 1.63e6 | 1.66e6 | 1.06e6 | 1.24e6 | inactive |
| Ebp (GeneID 38009) | DRSC04048 | 1.44e6 | 1.44e6 | 1.17e6 | 1.20e6 | inactive |
| CG30458 (GeneID 246624) | DRSC06660 | 1.64e6 | 1.68e6 | 1.13e6 | 1.28e6 | inactive |
| Adgf-B (GeneID 39975) | DRSC10568 | 1.40e6 | 1.50e6 | 1.27e6 | 1.36e6 | inactive |
| Oatp58Db (GeneID 37544) | DRSC04364 | 1.66e6 | 1.82e6 | 1.35e6 | 3.77e5 | inactive |
| CG34242 (GeneID 5740417) | DRSC09185 | 1.65e6 | 1.65e6 | 1.18e6 | 1.36e6 | inactive |
| CG15059 (GeneID 32806) | DRSC19633 | 1.75e6 | 1.73e6 | 1.13e6 | 1.29e6 | inactive |
| CG10565 (GeneID 40332) | DRSC11620 | 1.53e6 | 1.58e6 | 1.41e6 | 1.42e6 | inactive |
| trc (GeneID 40165) | DRSC11406 | 1.55e6 | 2.06e6 | 1.25e6 | 1.43e6 | inactive |
| CG33306 (GeneID 2768915) | DRSC01899 | 1.33e6 | 1.38e6 | 1.29e6 | 1.28e6 | inactive |
| CG15353 (GeneID 50191) | DRSC00383 | 1.33e6 | 1.30e6 | 1.02e6 | 1.14e6 | inactive |
| Rlip (GeneID 42484) | DRSC16828 | 1.25e6 | 1.41e6 | 1.06e6 | 1.08e6 | inactive |
| bel (GeneID 45826) | DRSC16555 | 1.30e6 | 1.43e6 | 1.04e6 | 1.15e6 | inactive |
| Son (GeneID 41159) | DRSC16400 | 1.37e6 | 1.45e6 | 1.33e6 | 1.45e6 | inactive |
| homer (GeneID 33944) | DRSC03547 | 1.21e6 | 1.31e6 | 7.17e5 | 5.50e5 | inactive |
| CG11911 (GeneID 33206) | DRSC00331 | 1.32e6 | 1.38e6 | 1.01e6 | 1.09e6 | inactive |
| CG34155 (GeneID 4379867) | DRSC13991 | 1.50e6 | 1.61e6 | 1.08e6 | 1.13e6 | inactive |
| Gr64c (GeneID 117479) | DRSC08445 | 1.64e6 | 1.20e6 | 1.09e6 | 1.27e6 | inactive |
| CG30156 (GeneID 246488) | DRSC04959 | 1.42e6 | 1.53e6 | 9.80e5 | 1.11e6 | inactive |
| RhoGAP93B (GeneID 42496) | DRSC15488 | 1.29e6 | 1.25e6 | 1.19e6 | 1.24e6 | inactive |
| CG12490 (GeneID 37623) | DRSC04123 | 1.52e6 | 1.61e6 | 1.35e6 | 1.39e6 | inactive |
| Hrs (GeneID 33458) | DRSC00549 | 1.27e6 | 1.31e6 | 7.24e5 | 7.05e5 | inactive |
| CG11151 (GeneID 32335) | DRSC19387 | 1.67e6 | 1.69e6 | 9.97e5 | 1.18e6 | inactive |
| CG15549 (GeneID 43665) | DRSC15087 | 1.55e6 | 1.55e6 | 1.05e6 | 1.18e6 | inactive |
| Vha14-2 (GeneID 40748) | DRSC12145 | 1.39e6 | 1.39e6 | 1.35e6 | 1.44e6 | inactive |
| CCHa1 (GeneID 41711) | DRSC14821 | 1.43e6 | 1.56e6 | 7.65e5 | 8.35e5 | inactive |
| ChLD3 (GeneID 35002) | DRSC02640 | 1.47e6 | 1.53e6 | 1.22e6 | 1.38e6 | inactive |
